Test results taken from patent US20160186156A1.
Results are given in words; binding and its absence hold for the method and conditions named. Some binding calls cover weakened binding; strength is not graded here. Where a sequence is shown, tags or fusion partners need not be part of it.

Sequences of proteins named here, by UniProt entry; tags and fusion partners are left off. A change or cut given only in a name is not applied to a line headed by its entry.
UniProt Q06851: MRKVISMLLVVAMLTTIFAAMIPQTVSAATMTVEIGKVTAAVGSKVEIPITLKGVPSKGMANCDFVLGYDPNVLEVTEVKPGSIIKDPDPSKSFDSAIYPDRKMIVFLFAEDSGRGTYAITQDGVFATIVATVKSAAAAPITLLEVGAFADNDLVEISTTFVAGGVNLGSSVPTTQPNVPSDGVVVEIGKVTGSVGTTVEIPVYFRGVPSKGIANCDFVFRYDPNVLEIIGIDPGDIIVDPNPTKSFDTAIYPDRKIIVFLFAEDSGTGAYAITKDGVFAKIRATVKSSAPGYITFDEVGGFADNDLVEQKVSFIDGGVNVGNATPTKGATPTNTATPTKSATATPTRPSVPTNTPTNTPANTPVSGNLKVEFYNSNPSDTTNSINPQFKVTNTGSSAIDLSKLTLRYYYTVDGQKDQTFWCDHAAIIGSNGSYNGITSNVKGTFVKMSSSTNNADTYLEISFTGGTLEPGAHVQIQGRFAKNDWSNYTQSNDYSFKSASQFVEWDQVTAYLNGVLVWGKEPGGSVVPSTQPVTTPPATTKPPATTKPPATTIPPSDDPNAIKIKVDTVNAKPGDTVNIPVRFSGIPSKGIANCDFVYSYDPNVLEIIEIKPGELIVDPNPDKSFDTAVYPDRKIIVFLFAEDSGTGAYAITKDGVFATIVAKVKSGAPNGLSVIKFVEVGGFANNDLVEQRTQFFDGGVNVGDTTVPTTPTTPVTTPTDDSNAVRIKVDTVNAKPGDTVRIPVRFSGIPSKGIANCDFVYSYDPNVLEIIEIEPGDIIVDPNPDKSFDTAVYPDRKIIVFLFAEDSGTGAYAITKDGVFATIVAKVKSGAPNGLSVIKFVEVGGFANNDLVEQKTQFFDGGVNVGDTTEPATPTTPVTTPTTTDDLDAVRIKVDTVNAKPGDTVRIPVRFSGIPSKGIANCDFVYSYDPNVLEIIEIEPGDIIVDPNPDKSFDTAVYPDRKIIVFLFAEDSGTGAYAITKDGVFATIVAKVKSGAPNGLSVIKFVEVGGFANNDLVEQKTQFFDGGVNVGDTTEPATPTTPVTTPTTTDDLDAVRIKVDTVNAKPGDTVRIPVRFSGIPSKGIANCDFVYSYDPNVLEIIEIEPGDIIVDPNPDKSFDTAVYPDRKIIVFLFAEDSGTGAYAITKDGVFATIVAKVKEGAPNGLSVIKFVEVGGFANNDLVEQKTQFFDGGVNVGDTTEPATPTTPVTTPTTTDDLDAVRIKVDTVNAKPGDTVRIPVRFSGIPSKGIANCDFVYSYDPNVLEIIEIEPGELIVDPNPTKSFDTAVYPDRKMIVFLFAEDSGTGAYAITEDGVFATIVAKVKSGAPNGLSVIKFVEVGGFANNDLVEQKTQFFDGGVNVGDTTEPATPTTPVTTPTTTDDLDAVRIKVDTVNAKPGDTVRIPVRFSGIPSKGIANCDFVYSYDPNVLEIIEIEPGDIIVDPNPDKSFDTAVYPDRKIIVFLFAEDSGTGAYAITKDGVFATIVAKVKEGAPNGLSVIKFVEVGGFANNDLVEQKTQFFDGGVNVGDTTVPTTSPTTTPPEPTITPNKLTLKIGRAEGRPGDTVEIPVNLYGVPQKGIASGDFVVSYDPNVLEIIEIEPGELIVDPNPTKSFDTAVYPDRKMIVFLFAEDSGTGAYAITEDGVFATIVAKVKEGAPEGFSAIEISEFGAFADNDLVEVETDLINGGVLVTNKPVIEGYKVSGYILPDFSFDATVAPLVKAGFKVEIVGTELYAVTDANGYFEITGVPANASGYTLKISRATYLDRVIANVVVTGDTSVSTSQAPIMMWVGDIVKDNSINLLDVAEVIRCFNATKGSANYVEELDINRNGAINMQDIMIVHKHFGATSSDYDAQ

Target: T1, exoglucanase Cel48S from C. thermocellum together with its native dockerin
T1 sequence: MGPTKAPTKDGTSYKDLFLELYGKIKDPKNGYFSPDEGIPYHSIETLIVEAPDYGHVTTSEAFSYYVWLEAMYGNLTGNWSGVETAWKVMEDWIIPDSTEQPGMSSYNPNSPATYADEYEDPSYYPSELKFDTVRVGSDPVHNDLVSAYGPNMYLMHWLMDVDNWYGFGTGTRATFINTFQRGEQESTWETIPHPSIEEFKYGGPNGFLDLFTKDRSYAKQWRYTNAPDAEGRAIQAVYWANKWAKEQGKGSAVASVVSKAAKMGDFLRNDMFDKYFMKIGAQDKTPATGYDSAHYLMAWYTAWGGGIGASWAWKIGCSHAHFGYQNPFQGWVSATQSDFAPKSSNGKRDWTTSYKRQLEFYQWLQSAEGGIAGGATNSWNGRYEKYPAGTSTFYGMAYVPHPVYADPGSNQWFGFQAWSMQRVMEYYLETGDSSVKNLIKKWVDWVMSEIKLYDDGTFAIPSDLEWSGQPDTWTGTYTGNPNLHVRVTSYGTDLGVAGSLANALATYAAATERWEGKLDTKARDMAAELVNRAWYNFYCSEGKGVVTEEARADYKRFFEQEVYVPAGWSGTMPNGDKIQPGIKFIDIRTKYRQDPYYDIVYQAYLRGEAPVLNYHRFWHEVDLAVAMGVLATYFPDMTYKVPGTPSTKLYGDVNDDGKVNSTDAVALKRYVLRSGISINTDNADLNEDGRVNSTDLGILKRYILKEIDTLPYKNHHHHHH
Assay: affinity-based ELISA; enzyme coated on the plate, CBM-cohesin at 0.1-1000 ng/ul, detected with anti-CBM antibody

## CBM-CohCt A2 (from UniProt Q06851 361-1677)
  binding: binds
